In all, about 330,000 compounds went through this assay and about 7,700 (2.3%) were called active. Inconclusive results, whose numbers are uncertain, are shown with a selection of clear calls. Calls come from the whole dose curve; as a rule, active = well fitted inhibition curve with a large enough effect; inconclusive = small, poorly fitted or top-dose-only effect, or effect the other way; inactive = flat fitted curve, though single readings scatter. A potency beside an inconclusive call is a rough fit, not a confirmed value.
Test: qHTS screen for small molecules that inhibit ELG1-dependent DNA repair in human embryonic kidney (HEK293T) cells expressing luciferase-tagged ELG1; note: nearly all actives have a fitted effect of over 55% in size
Settings: HEK293T ELG1-luciferase reporter, luminescence, 16 h, DNA damage induced by 5-fluorouridine; series mostly up to 46.1 µM
How it was run: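 5-Fluorouridine DNA damage + compound/DMSO, 2,000 cells/well, 16 h, 37 °C/5% CO2. ONE-Glo, 30 min RT, luminescence. Readout = decrease in reporter signal.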
Potency is the fitted concentration of half-maximal effect.

SMILES | Potency
CCOc1ccc(N(CC(=O)NCc2ccccc2OC)S(C)(=O)=O)cc1 | inconclusive: 20.6 µM [activator, partial curve]
COc1cccc(C(=O)NCc2ccc(N3CCN(C(=O)OC(C)(C)C)CC3)cc2)c1 | inconclusive: 10.3 µM [inhibitor, partial curve]
CCn1nc(C)c(CN2CCCC(CO)(Cc3cccc(Cl)c3)C2)c1C (stereo not drawn) | inconclusive: 6.51 µM [inhibitor, partial curve, poor fit]
CCc1cc(C(=O)O)c(NC(=O)c2cc(OC)c(OC)c(OC)c2)s1 | inconclusive: 29.1 µM [activator, single point]
O=C(COC(=O)Cc1cccc(F)c1)NCCc1ccccc1 | inactive
CCCCOc1ccc(CSc2nncn2N)cc1 | inconclusive: 16.4 µM [activator, partial curve]
COc1ccc(CNC(=O)CN2C(=O)NC3(CCCc4sccc43)C2=O)cc1 (stereo not drawn) | inconclusive: 25.9 µM [activator, partial curve, poor fit]
O=C(O)C1CCN(C(=O)CSc2nc3cc(Cl)ccc3c(=O)n2Cc2ccccc2)CC1 | inactive
CCCCNC(=O)CCC(=O)Nc1ccc2nc(N3CCC(C)CC3)cc(C)c2c1 | inconclusive: 29.1 µM [inhibitor, single point]
CCCCNc1oc(-c2ccc(OC)cc2)nc1S(=O)(=O)c1ccccc1 | inconclusive: 16.4 µM [inhibitor, partial curve]
COC(=O)c1ccc(S(=O)(=O)N(C2CCCCC2)C2CCCCC2)n1C | inactive
Cc1ccc(C)c(OCCn2cc(/C=C(\C#N)C(=O)NCc3ccco3)c3ccccc32)c1 | inconclusive: 32.6 µM [activator, single point]
Cc1ccc(-c2cccc(NC(=O)C3C4C=CC(C4)C3C(=O)O)c2)o1 (stereo not drawn) | inconclusive: 18.4 µM [activator, partial curve, poor fit]
N#Cc1ccc(CN2CCN(C(=O)c3ccc(S(=O)(=O)N4CCCCCC4)cc3)CC2)cc1 | inconclusive: 5.62 µM [inhibitor, partial curve]
COc1ccc(CC(C)CC(=O)NCCc2ccc(OC)c(OC)c2)cc1 (stereo not drawn) | inconclusive: 6.51 µM [inhibitor, partial curve, poor fit]
O=C(CCC1CCCN(C(=O)Cc2cccc(F)c2)C1)N1CCN(c2ccccn2)CC1 (stereo not drawn) | inconclusive: 23.1 µM [activator, single point]
O=C(COC(=O)c1ccco1)c1ccc(Cl)cc1 | inactive
COc1ccc(C2=NS(=O)(=O)N(C)C(C(=O)N3CCc4ccccc4C3)=C2)cc1OC | active: 18.3 µM
COc1ccc(/C=N/Nc2cc(C)nc(-n3nc(C)cc3C)n2)c(OC)c1 | inactive
COc1ccc(CCNC(=O)c2ccc3nc(N4CCCCC4)sc3c2)cc1OC | inconclusive: 4.61 µM [inhibitor, single point]
c1ccc(C[C@H]2CNCCN2CC2(c3ccccc3)CC2)cc1 | inactive
O=C(Nc1ncccc1O)c1ccc2ccccc2c1 | inconclusive: 20.6 µM [inhibitor, single point]
O=[N+]([O-])c1ccc(/C=N\NS(=O)(=O)c2ccc(F)cc2)o1 | inactive

SMILES | Potency
O=C(N/N=C/c1ccncc1)c1ccccn1 | inconclusive: 20.6 µM [activator, partial curve]
N#Cc1c(N2CCN(C(=O)c3ccco3)CC2)nc(-c2ccccc2)c2c1CCCC2 | active: 25.9 µM
CC(C)CCN(CCC(C)C)C/C(O)=C(\C#N)c1nc(-c2ccccc2)cs1 | inconclusive: 20.6 µM [inhibitor, single point]
COc1ccc(C(=O)NCc2nnc(SCC(=O)NCc3ccco3)o2)cc1 | inconclusive: 20.6 µM [activator, single point]
COc1cc(/C=N/NC(=O)C(=O)NCc2ccco2)cc(Cl)c1O | inconclusive: 23.1 µM [activator, single point]
CNC(=O)c1ccccc1NC(=O)c1ccc(C)c(S(=O)(=O)N2CCCCC2)c1 | inconclusive: 18.4 µM [inhibitor, single point]
CCC1CN(C(=O)N2CCC(C(=O)NCc3ccccc3OC)CC2)c2cc(C)ccc2O1 (stereo not drawn) | inconclusive: 16.4 µM [inhibitor, partial curve]
CCn1c(C)nc2cc(C(=O)N/N=C/c3ccc(O)c(O)c3O)ccc21 | inconclusive: 23.1 µM [inhibitor, single point]
CCOC(=O)c1cc(S(=O)(=O)Nc2ccc(OC)cc2OC)cn1C | inactive
CCN(CC)CCn1c(=N)n(CC(=O)c2ccc(Br)s2)c2ccccc21 | inconclusive: 23.1 µM [activator, single point]
COc1ccc(-n2ncc(C(C)NS(=O)(=O)c3cccs3)c2C)cc1 (stereo not drawn) | inactive
CCOC(=O)C1(CCOc2ccccc2)CCN(Cc2ccc(CO)o2)CC1 | inactive
CCOc1ccc(NC(=O)c2cnccn2)cc1 | inconclusive: 1.84 µM [activator, full curve]
CC1CCN(C(=O)c2cc3nc(-c4ccccc4)cc(-c4ccccc4)n3n2)CC1 | inconclusive: 20.6 µM [inhibitor, single point]
CN(C)S(=O)(=O)c1cccc(NC(=O)c2ccc(S(=O)(=O)N3CCCCC3)cc2)c1 | inconclusive: 23.1 µM [inhibitor, single point]
CCCNC(=O)N1CCN(c2nc(C(C)C)c3c(c2C#N)CC(C)(C)OC3)CC1 | inactive
COCCn1c(-c2cc(OC)c(OC)c(OC)c2)nc2oc3cc(OC)ccc3c(=O)c2c1=O | inconclusive: 11.6 µM [inhibitor, partial curve, poor fit]
Cc1[nH]n(C(N)=S)c(=O)c1N=Nc1ccc(Cl)cc1Cl | inconclusive: 13 µM [activator, partial curve]
Cc1nnc(NC(=O)c2oc3cc(C)c(C)cc3c2C)s1 | inactive
Cc1cc(NC(=O)c2cccc(S(=O)(=O)N3CCCCCC3)c2)n(-c2ccccn2)n1 | inactive
CN(c1ccccc1)S(=O)(=O)c1ccccc1Br | inconclusive: 10.3 µM [activator, partial curve, poor fit]
COC(=O)CSc1nnc(CNC(=O)c2cc(OC)cc(OC)c2)n1-c1ccc(F)cc1 | inactive
CCc1ccccc1NC(=O)C1C2C=CC(O2)C1C(=O)O (stereo not drawn) | inactive

SMILES | Potency
Cc1sc2ncnc(N3CCC(C(=O)NNC(=O)COc4ccc(Br)cc4)CC3)c2c1C | inconclusive: 9.2 µM [inhibitor, single point]
C=CCSc1nnc(CSc2nc3sc4c(c3c(=O)[nH]2)CCCC4)n1-c1ccccc1 | inactive
O=C(c1ccc(OC2CCN(CCc3ccccc3)CC2)cc1)N1CCC[C@H]1CO | inactive
CC(C)Cn1c(N)c(C(=O)COC(=O)C2CC(=O)N(c3ccc4c(c3)OCCO4)C2)c(=O)n(C)c1=O (stereo not drawn) | inconclusive: 14.6 µM [inhibitor, partial curve, poor fit]
O=C(Nc1cccc(O)c1)c1ccc(C(=O)c2ccccc2)o1 | inconclusive: 6.51 µM [activator, single point]
COc1cc(OC)cc(-c2c(-c3cccs3)c3cc(-c4ccc5c(c4)OCO5)ccc3n2C)c1 | inactive
S=c1[nH]nc(-c2ccc(Cl)cc2Cl)n1-c1ccccc1 | inconclusive: 13 µM [activator, partial curve]
COc1ccc(NC(=S)N2CCN(Cc3ccco3)CC2)c(OC)c1 | inconclusive: 16.4 µM [activator, single point]
Cc1ccc(NS(=O)(=O)c2ccc(C(=O)N3CCN(S(=O)(=O)c4ccccc4)CC3)cc2)cc1 | inconclusive: 29.1 µM [inhibitor, single point]
CCOC(=O)C1=C(CN2CCN(C(=O)c3ccco3)CC2)NC(=O)NC1c1ccccc1 (stereo not drawn) | inactive
CNC(=O)c1cc(NC(=O)CCn2nc(-c3ccc(C)cc3)c3ccccc3c2=O)ccc1OC | inconclusive: 18.3 µM [inhibitor, partial curve]
O=C(CN1C(=O)NC2(CCCC2)C1=O)Nc1ccc(C(F)(F)F)cc1 | inconclusive: 10.3 µM [activator, partial curve, poor fit]
O=c1cc(O)c2c(=O)n(Cc3ccccc3)c3ccccc3c2o1 | inconclusive: 2.31 µM [inhibitor, full curve]
CCCC(NC(=S)NCC1CCCO1)C12CC3CC(CC(C3)C1)C2 (stereo not drawn) | inconclusive: 29.1 µM [inhibitor, single point]
C=CCOC(=O)CSCC(NC(=O)OC(C)(C)C)C(=O)OCC (stereo not drawn) | inactive
O=c1c2ccccc2nc(N/N=C/c2ccccc2)n1O | inconclusive: 25.9 µM [activator, single point]
CC(NC(=O)CN1C(=O)NC2(CCc3ccccc32)C1=O)c1ccc2c(c1)OCCO2 (stereo not drawn) | inactive
O=C(NCc1cccs1)c1ccc(N2CCCC2=O)cc1 | inconclusive: 23.1 µM [activator, single point]
Nc1nc(CN2CCN(c3ccccc3)CC2)nc(Nc2ccc(Cl)cc2)n1 | inconclusive: 18.3 µM [inhibitor, single point]
Cc1ccccc1NS(=O)(=O)c1ccc(N2CCCC2=O)cc1 | inconclusive: 2.31 µM [inhibitor, partial curve, poor fit]
Cc1ccc(CSCC(=O)Nc2ccc(F)cc2)cc1 | inconclusive: 23.1 µM [activator, single point]
CCCOc1ccc(C(=O)NCC2OCCc3ccccc32)cc1OC (stereo not drawn) | inconclusive: 20.6 µM [inhibitor, single point]

Given in markdown: 4 of the compounds above

| SMILES | Potency |
| --- | --- |
| O=C(Nc1ncccc1O)c1ccc2ccccc2c1 | inconclusive: 20.6 µM [inhibitor, single point] |
| O=[N+]([O-])c1ccc(/C=N\NS(=O)(=O)c2ccc(F)cc2)o1 | inactive |
| O=C(N/N=C/c1ccncc1)c1ccccn1 | inconclusive: 20.6 µM [activator, partial curve] |
| N#Cc1c(N2CCN(C(=O)c3ccco3)CC2)nc(-c2ccccc2)c2c1CCCC2 | active: 25.9 µM |
